Here are results for 1 sequence from article PMC10514999, “The PyPIF5-PymiR156a-PySPL9-PyMYB114/MYB10 module regulates light-induced anthocyanin biosynthesis in red pear”.

This data set has as its target T1, PyPIF5 (UniProt A0A5N5GDZ9).
T1 sequence (looked up, limits assumed): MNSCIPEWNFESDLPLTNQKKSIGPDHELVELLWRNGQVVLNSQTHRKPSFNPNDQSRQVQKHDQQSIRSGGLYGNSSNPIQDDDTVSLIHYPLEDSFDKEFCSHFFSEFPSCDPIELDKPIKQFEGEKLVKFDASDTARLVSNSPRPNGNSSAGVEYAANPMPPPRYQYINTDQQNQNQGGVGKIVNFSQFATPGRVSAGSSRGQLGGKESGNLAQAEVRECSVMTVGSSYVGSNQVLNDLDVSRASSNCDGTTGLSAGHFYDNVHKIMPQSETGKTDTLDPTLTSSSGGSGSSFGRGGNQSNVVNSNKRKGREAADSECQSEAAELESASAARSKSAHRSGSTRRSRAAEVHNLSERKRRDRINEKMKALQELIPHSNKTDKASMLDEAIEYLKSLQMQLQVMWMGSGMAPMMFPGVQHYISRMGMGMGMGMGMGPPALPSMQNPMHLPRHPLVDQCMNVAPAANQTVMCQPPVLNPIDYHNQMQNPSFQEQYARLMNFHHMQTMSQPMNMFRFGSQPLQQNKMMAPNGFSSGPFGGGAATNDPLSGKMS
The data set is described as follows: EMSA. The note with it: 20 nM probe, 500 ng protein; EMSA: 500 ng PyPIF5-His, 20 nM biotin probe, 20 uL with 4 uL 5x EMSA/Gel-Shift buffer (Beyotime GS009), 20 min, room temperature (~25 C); salt and pH not stated; recombinant protein; protein details: His (pColdTF vector); label: biotin.

The exact form of at least one protein or probe is not confirmed. Protein sequences can lack the tags named with them.

With “TTGTAAAGAACACGTACGTTACACGTACGCTGAAACA / TGTTTCAGCGTAGTGTAACGTACGTGTTCTTTACAA [PymiR156a promoter G-box probe (Bio-probe)]”, the binding result is “binds”.
